Data from patent US12521402B2, “Biomarker and drug combinations for heart failure prediction” (Endothelium Scanning Nanotechnology Limited, priority 2022, dated 2026).

Assay: Saliva proteomics: biomarker quantification by mass spectrometry SWATH in participants at risk of heart failure vs controls
Set-up: species or system human
Conditions: for AtRisk average: 'at risk' of heart failure group mean; for AtRisk average / Control average: mass spectrometry SWATH quantification; for Control average: control group mean
[1] = differential expression (fold) control vs 'at risk' group, saliva

Molecule	Control vs Risk [1]	AtRisk average (saliva, 20 samples)	Control average (saliva, 20 samples)	Control vs Risk (differential expression (fold) control vs 'at risk', printed as larger/smaller average whatever the direction)	AtRisk average (saliva)	Control average (saliva)
PADI3 (protein, UniProt Q9ULW8 1-664, looked up) Protein-arginine deiminase …: MSLQRIVRVSLEHPTSAVCVAGVETLVDIYGSVPEGTEMFEVYGTPGVDIYISPNMERGRERADTRRWRFDATLEIIVVMNSPSNDLNDSHVQISYHSSHEPLPLAYAVLYLTCVDISLDCDLNCEGRQDRNFVDKRQWVWGPSGYGGILLVNCDRDDPSCDVQDNCDQHVHCLQDLEDMSVMVLRTQGPAALFDDHKLVLHTSSYDAKRAQVFHICGPEDVCEAYRHVLGQDKVSYEVPRLHGDEERFFVEGLSFPDAGFTGLISFHVTLLDDSNEDFSASPIFTDTVVFRVAPWIMTPSTLPPLEVYVCRVRNNTCFVDAVAELARKAGCKLTICPQAENRNDRWIQDEMELGYVQAPHKTLPVVFDSPRNGELQDFPYKRILGPDFGYVTREPRDRSVSGLDSFGNLEVSPPVVANGKEYPLGRILIGGNLPGSSGRRVTQVVRDFLHAQKVQPPVELFVDWLAVGHVDEFLSFVPAPDGKGFRMLLASPGACFKLFQEKQKCGHGRALLFQGVVDDEQVKTISINQVLSNKDLINYNKFVQSCIDWNREVLKRELGLAECDIIDIPQLFKTERKKATAFFPDLVNMLVLGKHLGIPKPFGPIINGCCCLEEKVRSLLEPLGLHCTFIDDFTPYHMLHGEVHCGTNVCRKPFSFKWWNMVP	2.50	100,865 ng/ml	251,948 ng/ml			
GALT5 (protein, UniProt Q7Z7M9 1-940, looked up) Polypeptide …: MNRIRKFFRGSGRVLAFIFVASVIWLLFDMAALRLSFSEINTRVIKEDIVRRERIGFRVQPDQGKIFYSSIKEMKPPLRGHGKGAWGKENVRKTEESVLKVEVDLDQTQRERKMQNALGRGKVVPLWHPAHLQTLPVTPNKQKTDGRGTKPEASSHQGTPKQTTAQGAPKTSFIAAKGTQVVKISVHMGRVSLKQEPRKSHSPSSDTSKLAAERDLNVTISLSTDRPKQRSQAVANERAHPASTAVPKSGEAMALNKTKTQSKEVNANKHKANTSLPFPKFTVNSNRLRKQSINETPLGSLSKDDGARGAHGKKLNFSESHLVIITKEEEQKADPKEVSNSKTKTIFPKVLGKSQSKHISRNRSEMSSSSLAPHRVPLSQTNHALTGGLEPAKINITAKAPSTEYNQSHIKALLPEDSGTHQVLRIDVTLSPRDPKAPGQFGRPVVVPHGKEKEAERRWKEGNFNVYLSDLIPVDRAIEDTRPAGCAEQLVHNNLPTTSVIMCFVDEVWSTLLRSVHSVINRSPPHLIKEILLVDDFSTKDYLKDNLDKYMSQFPKVRILRLKERHGLIRARLAGAQNATGDVLTFLDSHVECNVGWLEPLLERVYLSRKKVACPVIEVINDKDMSYMTVDNFQRGIFVWPMNFGWRTIPPDVIAKNRIKETDTIRCPVMAGGLFSIDKSYFFELGTYDPGLDVWGGENMELSFKVWMCGGEIEIIPCSRVGHIFRNDNPYSFPKDRMKTVERNLVRVAEVWLDEYKELFYGHGDHLIDQGLDVGNLTQQRELRKKLKCKSFKWYLENVFPDLRAPIVRASGVLINVALGKCISIENTTVILEDCDGSKELQQFNYTWLRLIKCGEWCIAPIPDKGAVRLHPCDNRNKGLKWLHKSTSVFHPELVNHIVFENNQQLLCLEGNFSQKILKVAACDPVKPYQKWKFEKYYEA				9.75	17,606 ng/ml	171,663 ng/ml
CYTB (protein, UniProt P04080 1-98, looked up) Cystatin-B: MMCGAPSATQPATAETQHIADQVRSQLEEKENKKFPVFKAVSFKSQVVAGTNYFIKVHVGDEDFVHLRVFQSLPHENKPLTLSNYQTNKAKHDELTYF	2.46	57,505,633 ng/ml	23,329,698 ng/ml			
HEP2 (protein, UniProt P05546 20-499, looked up) Heparin cofactor 2: GSKGPLDQLEKGGETAQSADPQWEQLNNKNLSMPLLPADFHKENTVTNDWIPEGEEDDDYLDLEKIFSEDDDYIDIVDSLSVSPTDSDVSAGNILQLFHGKSRIQRLNILNAKFAFNLYRVLKDQVNTFDNIFIAPVGISTAMGMISLGLKGETHEQVHSILHFKDFVNASSKYEITTIHNLFRKLTHRLFRRNFGYTLRSVNDLYIQKQFPILLDFKTKVREYYFAEAQIADFSDPAFISKTNNHIMKLTKGLIKDALENIDPATQMMILNCIYFKGSWVNKFPVEMTHNHNFRLNEREVVKVSMMQTKGNFLAANDQELDCDILQLEYVGGISMLIVVPHKMSGMKTLEAQLTPRVVERWQKSMTNRTREVLLPKFKLEKNYNLVESLKLMGIRMLFDKNGNMAGISDQRIAIDLFKHQGTITVNEEGTQATTVTTVGFMPLSTQVRFTVDRPFLFLIYEHRTSCLLFMGRVANPSRS	2.42	326,072 ng/ml	788,214 ng/ml			
TWF2 (protein, UniProt Q6IBS0 2-349, looked up) Twinfilin-2: AHQTGIHATEELKEFFAKARAGSVRLIKVVIEDEQLVLGASQEPVGRWDQDYDRAVLPLLDAQQPCYLLYRLDSQNAQGFEWLFLAWSPDNSPVRLKMLYAATRATVKKEFGGGHIKDELFGTVKDDLSFAGYQKHLSSCAAPAPLTSAERELQQIRINEVKTEISVESKHQTLQGLAFPLQPEAQRALQQLKQKMVNYIQMKLDLERETIELVHTEPTDVAQLPSRVPRDAARYHFFLYKHTHEGDPLESVVFIYSMPGYKCSIKERMLYSSCKSRLLDSVEQDFHLEIAKKIEIGDGAELTAEFLYDEVHPKQHAFKQAFAKPKGPGGKRGHKRLIRGPGENGDDS	2.40	72,008 ng/ml	172,789 ng/ml			
FM25G (protein, UniProt B3EWG6 1-89, looked up) Protein FAM25G: MLGGLGKLAAEGLAHRTEKATEGAIHAVEEVVKEVVGHAKETGEKAIAEAIKKAQESGDKKMKEITETVTNTVTNAITHAAESLDKLGQ	2.36	2,006,327 ng/ml	848,646 ng/ml			
PDZ11 (protein, UniProt Q5EBL8 1-140, looked up) PDZ domain-containing protein …: MDSRIPYDDYPVVFLPAYENPPAWIPPHERVHHPDYNNELTQFLPRTITLKKPPGAQLGFNIRGGKASQLGIFISKVIPDSDAHRAGLQEGDQVLAVNDVDFQDIEHSKAVEILKTAREISMRVRFFPYNYHRQKERTVH	2.31	35,866 ng/ml	82,727 ng/ml			
SAA1 (protein, UniProt P0DJI8 19-122, looked up) Serum amyloid A-1 protein: RSFFSFLGEAFDGARDMWRAYSDMREANYIGSDKYFHARGNYDAAKRGPGGAWAAEVITDARENIQRFFGHGAEDSLADQAANEWGRSGKDPNHFRPAGLPEKY	2.30	1,812,419 ng/ml	788,909 ng/ml			
IGA2 (protein, UniProt P01877 1-391, looked up) Immunoglobulin heavy constant …: ASPTSPKVFPLSLDSTPQDGNVVVACLVQGFFPQEPLSVTWSESGQNVTARNFPPSQDASGDLYTTSSQLTLPATQCPDGKSVTCHVKHYTNSSQDVTVPCRVPPPPPCCHPRLSLHRPALEDLLLGSEANLTCTLTGLRDASGATFTWTPSSGKSAVQGPPERDLCGCYSVSSVLPGCAQPWNHGETFTCTAAHPELKTPLTANITKSGNTFRPEVHLLPPPSEELALNELVTLTCLARGFSPKDVLVRWLQGSQELPREKYLTWASRQEPSQGTTTYAVTSILRVAAEDWKKGETFSCMVGHEALPLAFTQKTIDRMAGSCCVADWQMPPPYVVLDLPQETLEEETPGANLWPTTITFLTLFLLSLFYSTALTVTSVRGPSGKREGPQY	2.28	94,850,425 ng/ml	216,137,561 ng/ml			
LV321 (protein, UniProt P80748 18-117, looked up) Immunoglobulin lambda …: VTSYVLTQPPSVSVAPGQTARITCGGNNIGSKSVHWYQQKPGQAPVLVVYDDSDRPSGIPERFSGSNSGNTATLTISRVEAGDEADYYCQVWDSSSDHPT	2.27	210,897 ng/ml	479,593 ng/ml			
ICAM1 (protein, UniProt P05362 28-532, looked up) Intercellular adhesion …: QTSVSPSKVILPRGGSVLVTCSTSCDQPKLLGIETPLPKKELLLPGNNRKVYELSNVQEDSQPMCYSNCPDGQSTAKTFLTVYWTPERVELAPLPSWQPVGKNLTLRCQVEGGAPRANLTVVLLRGEKELKREPAVGEPAEVTTTVLVRRDHHGANFSCRTELDLRPQGLELFENTSAPYQLQTFVLPATPPQLVSPRVLEVDTQGTVVCSLDGLFPVSEAQVHLALGDQRLNPTVTYGNDSFSAKASVSVTAEDEGTQRLTCAVILGNQSQETLQTVTIYSFPAPNVILTKPEVSEGTEVTVKCEAHPRAKVTLNGVPAQPLGPRAQLLLKATPEDNGRSFSCSATLEVAGQLIHKNQTRELRVLYGPRLDERDCPGNWTWPENSQQTPMCQAWGNPLPELKCLKDGTFPLPIGESVTVTRDLEGTYLCRARSTQGEVTRKVTVNVLSPRYEIVIITVVAAAVIMGTAGLSTYLYNRQRKIKKYRLQQAQKGTPMKPNTQATPP	2.26	45,436 ng/ml				
SBSN (protein, UniProt Q6UWP8 26-590, looked up) Suprabasin: DDPIEKVIEGINRGLSNAEREVGKALDGINSGITHAGREVEKVFNGLSNMGSHTGKELDKGVQGLNHGMDKVAHEINHGIGQAGKEAEKLGHGVNNAAGQVGKEADKLIHHGVHHGANQAGSEAGKFGQGVDNAAGQAGNEAGRFGQGVHHAAGQAGNEAGRFGQGVHHAAGQAGNEAGRFGQGAHHGLSEGWKETEKFGQGIHHAAGQVGKEAEKFGQGAHHAAGQAGNEAGRFGQGVHHGLSEGWKETEKFGQGVHHTAGQVGKEAEKFGQGAHHAAGQAGNEAGRFGQGAHHAAGQAGNEAGRFGQGVHHGLSEGWKETEKFGQGVHHAASQFGKETEKLGHGVHHGVNEAWKEAEKFGQGVHHAASQVGKEEDRVVQGLHHGVSQAGREAGQFGHDIHHTAGQAGKEGDIAVHGVQPGVHEAGKEAGQFGQGVHHTLEQAGKEADKAVQGFHTGVHQAGKEAEKLGQGVNHAADQAGKEVEKLGQGAHHAAGQAGKELQNAHNGVNQASKEANQLLNGNHQSGSSSHQGGATTTPLASGASVNTPFINLPALWRSVANIMP	2.26	2,695,523 ng/ml	1,193,666 ng/ml			
A2GL (protein, UniProt P02750 36-347, looked up) Leucine-rich …: VTLSPKDCQVFRSDHGSSISCQPPAEIPGYLPADTVHLAVEFFNLTHLPANLLQGASKLQELHLSSNGLESLSPEFLRPVPQLRVLDLTRNALTGLPPGLFQASATLDTLVLKENQLEVLEVSWLHGLKALGHLDLSGNRLRKLPPGLLANFTLLRTLDLGENQLETLPPDLLRGPLQLERLHLEGNKLQVLGKDLLLPQPDLRYLFLNGNKLARVAAGAFQGLRQLDMLDLSNNSLASVPEGLWASLGQPNWDMRDGFDISGNPWICDQNLSDLYRWLQAQKDKMFSQNDTRCAGPEAVKGQTLLAVAKSQ	2.22	1,044,615 ng/ml	471,501 ng/ml			
